Article PMC3942315, “Structural Insights Into DNA Repair by RNase T—An Exonuclease Processing 3′ End of Structured DNA in Repair Pathways” (PLoS Biology, 2014)

What was measured:
Assay in all cases: EMSA
[1] = target: T1, ExoI (exonuclease I) (Escherichia coli (JM109 or K-12)) (UniProt P04995); details: 30 mM EDTA, 10 mM EGTA, EMSA: 20 nM DNA, 0/5/50 uM protein, 100 mM NaCl, 50 mM Tris-HCl pH 7.0, 20 min, room temperature, recombinant protein, residues 1-475, protein details: N-terminal His (pET-28a), label: 5'-32P
T1 sequence (looked up): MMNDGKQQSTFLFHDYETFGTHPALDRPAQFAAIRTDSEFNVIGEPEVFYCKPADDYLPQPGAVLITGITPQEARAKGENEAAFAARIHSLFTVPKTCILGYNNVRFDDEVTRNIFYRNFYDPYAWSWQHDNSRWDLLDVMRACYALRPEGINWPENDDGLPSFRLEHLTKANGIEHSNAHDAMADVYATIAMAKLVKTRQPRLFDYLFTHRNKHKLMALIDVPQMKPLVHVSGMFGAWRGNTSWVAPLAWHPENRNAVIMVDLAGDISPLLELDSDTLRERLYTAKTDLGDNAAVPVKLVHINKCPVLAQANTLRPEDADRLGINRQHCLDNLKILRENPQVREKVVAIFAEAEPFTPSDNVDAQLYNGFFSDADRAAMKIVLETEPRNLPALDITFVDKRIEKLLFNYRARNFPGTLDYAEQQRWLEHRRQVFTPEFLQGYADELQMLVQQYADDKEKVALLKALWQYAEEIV

[2] = target: T2, ExoX (exonuclease X) (Escherichia coli (JM109 or K-12)) (UniProt P0AEK0); details: 30 mM EDTA, 10 mM EGTA, EMSA: 20 nM DNA, 0/5/50 uM protein, 100 mM NaCl, 50 mM Tris-HCl pH 7.0, 20 min, room temperature, recombinant protein, residues 1-220, protein details: N-terminal His (pET-28a), label: 5'-32P
T2 sequence (looked up): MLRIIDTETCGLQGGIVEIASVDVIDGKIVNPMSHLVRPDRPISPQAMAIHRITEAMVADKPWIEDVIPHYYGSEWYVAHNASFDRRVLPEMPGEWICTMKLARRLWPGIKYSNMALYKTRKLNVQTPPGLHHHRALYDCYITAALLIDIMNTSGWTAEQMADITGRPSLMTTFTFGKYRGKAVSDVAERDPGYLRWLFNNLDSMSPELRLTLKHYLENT

[3] = target: T3, RNase T (Escherichia coli (JM109 or K-12)) (UniProt P30014); details: 30 mM EDTA, 10 mM EGTA, similar affinity to duplexes, EMSA: 20 nM DNA, 0/5/50 uM protein, 100 mM NaCl, 50 mM Tris-HCl pH 7.0, 20 min, room temperature, recombinant protein, residues 1-215, protein details: N-terminal His (pET-28a), label: 5'-32P, single-stranded DNA
T3 sequence (looked up): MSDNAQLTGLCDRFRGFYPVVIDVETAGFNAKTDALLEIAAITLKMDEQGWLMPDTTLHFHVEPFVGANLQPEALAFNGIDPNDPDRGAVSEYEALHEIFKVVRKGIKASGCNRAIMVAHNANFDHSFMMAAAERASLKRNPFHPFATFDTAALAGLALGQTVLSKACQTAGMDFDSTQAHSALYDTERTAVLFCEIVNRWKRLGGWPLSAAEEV

| Sequence | binding result ([1]; single-stranded DNA) | binding result ([2]; single-stranded DNA) | binding result [3] | binding result ([1]; folded or branched DNA) | binding result ([2]; folded or branched DNA) |
| --- | --- | --- | --- | --- | --- |
| AATCTTACAAA [ssDNA 11mer] | binds | binds | binds | – | – |
| GGCCCTCTTTAGGGCCTTAA [Stem-loop duplex DNA, 4-nt 3' overhang] | – | – | – | binds more weakly | binds more weakly |
| GGCCCTCTTTAGGGCCTTATAA [Stem-loop duplex DNA, 6-nt 3' overhang] | – | – | – | binds more weakly | binds more weakly |

For some of these results: The comparison behind a weaker result is the experiment's own reference, which may not be listed here. Protein sequences can lack the tags named with them. Construct, isoform or probe ends are uncertain for at least one entry. At least one verdict was read from the data and is not stated in words by the source.
